Assay [1] has as its target Strep-FLAG full-length LRRK2 E193K variant (human) (UniProt Q5S007). As to the kind of experiment: pull-down; Strep-FLAG LRRK2 constructs over-expressed in N2A cells, lysate (150 mM NaCl, 2 mM EDTA, 50 mM Tris-HCl, 1% NP-40, 0.25% sodium deoxycholate, pH 7.4) on Strep-Tactin Superflow resin 2 h at 4 °C, wash 300 mM NaCl, 50 mM Tris-HCl pH 7.4; co-isolated endogenous proteins detected by western blotting. On the technique in general: Immunoblotting shows a protein as a band on a membrane.

Sequences of proteins named here, by UniProt entry; tags and fusion partners are left off. A change or cut given only in a name is not applied to a line headed by its entry.
UniProt Q5S007: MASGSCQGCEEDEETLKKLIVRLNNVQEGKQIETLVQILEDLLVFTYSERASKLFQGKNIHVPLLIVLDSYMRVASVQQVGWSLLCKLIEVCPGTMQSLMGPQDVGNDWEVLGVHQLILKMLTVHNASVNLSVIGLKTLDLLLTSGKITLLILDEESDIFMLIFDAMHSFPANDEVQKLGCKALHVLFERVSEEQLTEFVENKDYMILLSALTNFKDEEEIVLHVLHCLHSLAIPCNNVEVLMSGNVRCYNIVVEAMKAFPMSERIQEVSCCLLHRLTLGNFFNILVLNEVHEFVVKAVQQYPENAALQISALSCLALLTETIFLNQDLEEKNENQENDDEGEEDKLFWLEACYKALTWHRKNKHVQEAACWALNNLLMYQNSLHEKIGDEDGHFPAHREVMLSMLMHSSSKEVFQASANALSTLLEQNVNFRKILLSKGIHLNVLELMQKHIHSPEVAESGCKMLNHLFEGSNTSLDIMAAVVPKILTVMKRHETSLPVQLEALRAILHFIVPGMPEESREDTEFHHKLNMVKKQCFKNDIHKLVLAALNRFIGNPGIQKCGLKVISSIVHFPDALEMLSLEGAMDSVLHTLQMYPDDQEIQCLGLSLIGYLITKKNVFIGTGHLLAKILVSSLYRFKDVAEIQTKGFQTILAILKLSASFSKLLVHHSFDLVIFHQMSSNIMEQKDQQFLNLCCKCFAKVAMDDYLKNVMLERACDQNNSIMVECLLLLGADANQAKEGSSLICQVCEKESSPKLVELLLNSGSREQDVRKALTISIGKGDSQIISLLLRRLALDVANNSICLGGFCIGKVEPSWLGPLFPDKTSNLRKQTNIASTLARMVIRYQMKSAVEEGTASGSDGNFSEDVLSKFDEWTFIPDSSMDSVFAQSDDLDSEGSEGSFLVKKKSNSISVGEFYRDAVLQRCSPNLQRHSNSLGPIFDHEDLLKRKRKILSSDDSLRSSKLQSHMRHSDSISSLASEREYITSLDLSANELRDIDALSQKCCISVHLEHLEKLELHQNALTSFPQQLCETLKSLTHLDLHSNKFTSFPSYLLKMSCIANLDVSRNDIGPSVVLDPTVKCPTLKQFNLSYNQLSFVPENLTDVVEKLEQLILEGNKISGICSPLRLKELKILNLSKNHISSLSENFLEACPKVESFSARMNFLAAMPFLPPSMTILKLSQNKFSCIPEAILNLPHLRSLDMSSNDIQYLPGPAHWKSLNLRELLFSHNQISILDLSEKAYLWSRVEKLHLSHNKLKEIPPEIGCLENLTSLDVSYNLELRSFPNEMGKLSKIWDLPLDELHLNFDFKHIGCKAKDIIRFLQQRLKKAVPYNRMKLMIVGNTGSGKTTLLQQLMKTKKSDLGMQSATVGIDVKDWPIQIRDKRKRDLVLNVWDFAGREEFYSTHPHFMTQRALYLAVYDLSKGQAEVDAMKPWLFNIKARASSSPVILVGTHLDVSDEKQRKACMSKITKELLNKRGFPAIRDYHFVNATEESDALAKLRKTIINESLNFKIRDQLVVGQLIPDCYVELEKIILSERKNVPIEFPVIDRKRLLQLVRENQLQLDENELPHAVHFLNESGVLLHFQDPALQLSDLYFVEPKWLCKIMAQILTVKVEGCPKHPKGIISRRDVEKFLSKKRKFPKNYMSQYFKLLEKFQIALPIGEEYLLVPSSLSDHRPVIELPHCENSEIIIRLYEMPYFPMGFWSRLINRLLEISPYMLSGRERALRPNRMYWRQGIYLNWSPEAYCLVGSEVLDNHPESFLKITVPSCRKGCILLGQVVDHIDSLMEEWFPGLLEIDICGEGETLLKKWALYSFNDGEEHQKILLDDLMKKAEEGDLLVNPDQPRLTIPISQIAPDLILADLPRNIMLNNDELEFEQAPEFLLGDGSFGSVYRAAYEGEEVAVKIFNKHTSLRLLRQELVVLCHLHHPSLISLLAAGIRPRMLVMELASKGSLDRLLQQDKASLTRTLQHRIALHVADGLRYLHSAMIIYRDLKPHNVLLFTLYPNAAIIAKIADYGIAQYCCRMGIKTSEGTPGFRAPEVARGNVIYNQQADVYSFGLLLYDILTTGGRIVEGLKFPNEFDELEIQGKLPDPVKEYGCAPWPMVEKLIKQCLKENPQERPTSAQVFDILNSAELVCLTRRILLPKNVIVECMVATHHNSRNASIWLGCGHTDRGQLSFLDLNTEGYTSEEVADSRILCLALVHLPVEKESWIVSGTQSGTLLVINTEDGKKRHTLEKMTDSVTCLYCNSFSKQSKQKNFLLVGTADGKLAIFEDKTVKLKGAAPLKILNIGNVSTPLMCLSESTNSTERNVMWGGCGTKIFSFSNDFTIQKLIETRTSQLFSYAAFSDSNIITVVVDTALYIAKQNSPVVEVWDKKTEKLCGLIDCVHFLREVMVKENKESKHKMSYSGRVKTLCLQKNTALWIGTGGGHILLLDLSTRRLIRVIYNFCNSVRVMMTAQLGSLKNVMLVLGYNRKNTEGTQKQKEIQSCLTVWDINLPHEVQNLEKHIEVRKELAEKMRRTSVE

For assay [2], the target named is Strep-FLAG full-length LRRK2 wild-type (human) (UniProt Q5S007). Described as above.

Results are given in words; binding and its absence hold for the method and conditions named. In cells and extracts the contact can be indirect. Some results given as binding are weak or reduced against the parent protein; the word gives no strength.

With synapsin I (from UniProt O88935 1-706), the binding result in assay [1] and in assay [2] was “binds” throughout.

(Values after paper PMC7052203.)
